Values of other authors in patent US5498601A, “Platelet aggregation-inhibiting peptides” (Nippon Steel Corporation, priority 1992, dated 1996).
Part of at least one peptide drawing is inferred or uncertain, most often the ends.

Tested on: platelet aggregation
Settings: 46-50 μM; cited from earlier work

Structure (SMILES): N=C(N)NCCC[C@H](N)C(=O)NCC(=O)N[C@@H](CC(=O)O)C(=O)N[C@@H](CO)C(=O)O [Comparative Example 1, Arg--Gly--Asp--Ser--OH]
- inhibition of platelet aggregation: 80-90%
